Experimental data as given in patent US20140220000A1, “MHC ENGAGEMENT AND CLIP MODULATION FOR THE TREATMENT OF DISEASE” (Scott & White Healthcare, priority 2011, published 2014).
For at least one compound, name, drawing or mass did not settle the structure.

Experiments:
MCF7 cells = experiment: CLIP expression of MCF7 cells after B-estradiol, anti-human CLIP staining; type: cell-based; settings: drug sensitive MCF7, 10 nM B-estradiol, FIG. 5
MCF7 ADR cells = experiment: CLIP expression of MCF7 ADR cells after B-estradiol, anti-human CLIP staining; type: cell-based; settings: drug resistant MCF7 ADR; 10 nM B-estradiol; FIG. 5

## C[C@]12CC[C@@H]3c4ccc(O)cc4CC[C@H]3[C@@H]1CC[C@@H]2O [B-Estradiol, B-estradiol]
MCF7 cells; listed as B-estradiol
  CLIP expression: inducing CLIP expression
MCF7 cells; listed as b-estradiol
  CLIP expression: increased CLIP expression
MCF7 ADR cells
  CLIP expression: did not induce CLIP expression
